Consider two molecules from paper PMC12216202.

No constants are given. Whether binding was seen depends on the method and setting. Binding seen in cells or lysates may run through a third protein. Some entries that bind do so weakly or less than the wild type. For some assays here: Tags and fused reporters may be left off the sequences shown.

Experiment [1] concerns the target T1, Flag-tagged NAT10 (not stated (human or mouse cDNA cloned)) (UniProt Q8K224).
T1 sequence: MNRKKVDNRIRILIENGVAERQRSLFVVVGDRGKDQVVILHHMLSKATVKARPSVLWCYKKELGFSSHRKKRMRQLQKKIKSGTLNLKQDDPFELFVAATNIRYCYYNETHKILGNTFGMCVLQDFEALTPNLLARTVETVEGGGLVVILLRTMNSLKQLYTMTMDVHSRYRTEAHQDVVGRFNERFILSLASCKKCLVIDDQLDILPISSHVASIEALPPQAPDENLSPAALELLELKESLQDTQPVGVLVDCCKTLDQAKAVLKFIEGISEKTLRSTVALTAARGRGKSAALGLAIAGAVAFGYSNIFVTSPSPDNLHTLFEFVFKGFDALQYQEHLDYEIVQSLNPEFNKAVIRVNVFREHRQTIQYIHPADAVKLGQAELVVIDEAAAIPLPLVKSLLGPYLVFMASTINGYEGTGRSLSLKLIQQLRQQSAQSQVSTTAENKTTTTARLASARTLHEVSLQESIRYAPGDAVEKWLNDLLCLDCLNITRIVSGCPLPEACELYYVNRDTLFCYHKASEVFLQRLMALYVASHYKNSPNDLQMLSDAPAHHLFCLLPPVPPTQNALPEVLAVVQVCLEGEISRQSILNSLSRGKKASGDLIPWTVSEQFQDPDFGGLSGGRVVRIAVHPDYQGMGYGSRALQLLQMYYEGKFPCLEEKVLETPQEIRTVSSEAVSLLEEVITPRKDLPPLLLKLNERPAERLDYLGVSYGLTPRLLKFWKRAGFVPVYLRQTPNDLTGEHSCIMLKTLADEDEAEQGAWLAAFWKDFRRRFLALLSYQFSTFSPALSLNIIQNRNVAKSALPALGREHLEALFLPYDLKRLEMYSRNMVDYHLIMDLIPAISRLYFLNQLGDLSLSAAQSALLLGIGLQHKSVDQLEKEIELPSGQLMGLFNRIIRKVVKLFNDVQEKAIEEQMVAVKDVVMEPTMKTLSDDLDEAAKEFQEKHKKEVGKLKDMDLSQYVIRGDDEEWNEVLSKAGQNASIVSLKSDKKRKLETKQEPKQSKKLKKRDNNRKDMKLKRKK
Put plainly: co-IP; RAW264.7 cells transfected with Myc-tagged USP39 and Flag-tagged NAT10, treated with PBS or LPS for 24 h; lysates immunoprecipitated with anti-Flag antibody, Western blot. For orientation: Immunoblotting shows a protein as a band on a membrane.

Experiment [2] deals with T2, N-acetyltransferase 10 (mouse (endogenous in BMDMs)) (UniProt Q8K224).
T2 sequence: T1 sequence
Put plainly: co-IP; Pierce Crosslink Magnetic IP/Co-IP Kit; 10 ug rabbit anti-mouse NAT10 antibody (ab194297), USP39 antibody (ab131244) or rabbit IgG; immunoprecipitates and input analysed by western blotting.

B1: Myc-tagged USP39 (enzyme, UniProt Q3TIX9 1-564)
chain: MSSRSKRQSHGSTRGKRESESRGSSGRIKKERDREKEPEAASSRGSPVRVKREAEPAAREVPAPALPVVRVKREREADEDSEPEREVRAKNGRVDSEDRRSRHCPYLDTINRSVLDFDFEKLCSISLSHINAYACLVCGKYFQGRGLKSHAYIHSVQFSHHVFLNLHTLKFYCLPDNYEIIDSSLEDITYVLKPTFTKQQIANLDKQAKLSRAYDGTTYLPGIVGLNNIKANDYANAVLQALSNVPPLRNYFLEEDNYKNIKRPPGDIMFLLVQRFGELMRKLWNPRNFKAHVSPHEMLQAVVLCSKKTFQITKQGDGVDFLSWFLNALHSALGGTKKKKKTIVNDVFQGSMRIFTKKLPHPDLPAEEKEQLLHNDEYQETMVESTFMYLTLDLPTAPLYKDEKEQLIIPQVPLFNILAKFNGITEKEYKTYKENFLKRFQLTKLPPYLIFCIKRFTKNNFFVEKNPTIVNFPITNVDLREYLSEEVQAVHKNTTYDLIANIVHDGKPSEGSYRIHVLHHGTGKWYELQDLQVTDILPQMITLSEAYIQIWKRRDNDETNQQGA
Regarding B1, the binding entry in experiment [1] is recorded as “binds”.

B2: USP39 (enzyme, UniProt Q3TIX9 1-564)
chain: B1 chain
B2: in experiment [2], the binding entry is listed as “binds”.
